A short description of this assay: qHTS Assay for Lipid Storage Modulators in Drosophila S3 Cells.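 For cell number change: cells counted by Cell Tracker Red CMTPX staining in the red channel.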 The note with it: BODIPY lipid droplet fluorescence, 18-24 h; for cell number change: measured here: cell count max response, cells fed with added oleic acid. A digest of the protocol:
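Drosophila S3 cells loaded with oleic acid (400 uM, as added) and compounds at several concentrations; lipid droplets imaged by 488-nm laser-scanning cytometry, 500–530 nm intensity and object ratio to cell channel. Percent activity normalized to 20 uM Triacsin C.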
A general note: In qHTS, concentration-response curves come from the screen itself.

Where [1] appears, read: measured here: cell number channel AC50, cells fed with added oleic acid.
Setting [2] is: measured here: lipid fluorescence (Fed channel) AC50, cells fed with added oleic acid.

Data on 58 compounds can be found in PubChem BioAssay AID2685 (National Center for Advancing Translational Sciences (NCATS), 2010).

SMILES strings stand for the structures. The list shows a part of the results. Shown are side measurements of this screen, not its main read-out; they come without a call. Most of these compounds were active or inconclusive in the main read-out, so they are no random draw. Potencies come from curve fits of mixed quality, noted in brackets.

In the case of `CCC(C)c1ccccc1NC(=S)Nc1cccnc1` (configuration not stated), the cell number change was 21.4%.

`NS(=O)(=O)c1ccc(CCNC(=O)c2cc(-c3cccs3)nc3ccccc23)cc1`: the cell number change was determined as 38.8%. Besides, under setting [1], the concentration at half-maximal activity (AC50) is 29.1 µM [rising, single point]. Under setting [2], the AC50 is 29.1 µM [rising, single point].

As to `COc1ccccc1CN1CCNC(=O)C1CC(=O)NCc1cn(C)nc1C` (configuration not stated), the cell number change was -32.9%. Also, the AC50 under setting [2] was 29.1 µM [falling, partial curve, poor fit].

For the compound `CCC(C)c1ccc(O)c(/C=N/O)c1` (configuration not stated), the cell number change is -39.1%. Moreover, the AC50 under setting [1] is 4.11 µM [falling, full curve]. For the same compound, the half-maximal activity concentration (AC50) under setting [2] is 14.6 µM [falling, partial curve].

`O=S(=O)(Nc1ccc(Br)cn1)c1ccc(Cl)s1`: the cell number change was -10.5%. The AC50 under setting [2] was 6.51 µM [rising, single point].

Consider `COc1cccc(N2CCN(C(=O)CN(c3cc(C)cc(C)c3)S(=O)(=O)c3c(C)noc3C)CC2)c1`, for which the cell number change turned out to be 15%. Under setting [2], the AC50 was 6.51 µM [rising, single point].

As to `Cc1cc(C)n2nc(SCC(=O)N(C)C)nc2n1`, the cell number change was -23.1%. For the same compound, the half-maximal activity concentration (AC50) under setting [1] is 1.84 µM [falling, full curve, poor fit]. For the same compound, the AC50 under setting [2] is 0.82 µM [falling, partial curve, poor fit].

On to `O=C(CCSc1nnc(-c2ccccc2)o1)N1CCOCC1`, for which the AC50 by setting is: under setting [1], 6.51 µM [rising, partial curve, poor fit]; under setting [2], 3.66 µM [rising, full curve].

On to `c1ccc(Cc2nn3c(C4COc5ccccc5O4)nnc3s2)cc1` (configuration not stated), for which the AC50 under setting [2] is 0.82 µM [rising, single point].

Turning to `Cc1ccc(C)c(OCc2cc(C(=O)NC3CCOC(C)(C)C3)no2)c1` (configuration not stated), the cell number change was -2.48%. In addition, the AC50 under setting [2] is 11.6 µM [rising, partial curve].

Regarding `COc1ccc(NC(=O)CCc2nnc3ccc(NCc4ccco4)nn23)cc1`, the cell number change was -22.7%.

Take `COc1ccc(C(=O)Nc2ccccc2C(=O)N/N=C/c2ccc(O)c(OC)c2)cc1`: the cell number change was -5.8%. Moreover, the AC50 under setting [1] was 1.84 µM [falling, partial curve]. The AC50 under setting [2] is 2.06 µM [falling, partial curve].

For `COc1ccc(C(=O)OCC(=O)NCC2CCCO2)cc1S(=O)(=O)N1CCCc2ccccc21` (configuration not stated), the cell number change was -0.656%. Further, the AC50 under setting [2] was 0.0116 µM [falling, full curve].

Turning to `CN(C)C(=O)c1cc([N+](=O)[O-])cc([N+](=O)[O-])c1N(C)C`, the cell number change is -2.44%. Under setting [2], the concentration at half-maximal activity (AC50) is 0.164 µM [rising, partial curve, poor fit].

Take `CC(C)c1ccc(NC(=O)COC(=O)C2=COCCO2)cc1`: the cell number change came out at 2.16%. Moreover, under setting [2], the AC50 is 2.91 µM [falling, partial curve].

Turning to `C[C@@]12CC(=O)NC1N(C(=O)c1cccc(C(F)(F)F)c1)C(c1ccccc1O)C2` (some centres not stated), the cell number change was -0.424%. Besides, the AC50 under setting [1] is 0.58 µM [falling, single point].

Consider `Cn1c(O)c(/C=C2\C=NN=C2c2ccccc2)sc1=S`, for which the cell number change is -54.7%. Also, under setting [1], the AC50 is 29.1 µM [falling, single point]. For the same compound, the AC50 under setting [2] is 29.1 µM [falling, single point].

Turning to `O=C(O)CCCC(=O)Nc1ccccc1Br`, the cell number change was -6.79%. Besides, under setting [2], the AC50 is 29.1 µM [falling, single point].

In the case of `CCc1c(C)nc2cc(C)[nH]n2c1=O`, the cell number change amounted to 7.17%. Further, under setting [2], the AC50 is 3.26 µM [falling, single point].

As for `COCc1n[nH]c(=S)n1-c1cccc2ccccc12`, the cell number change was determined as 8.01%. Besides, under setting [2], the AC50 is 0.00461 µM [falling, full curve, poor fit].

For `COc1ccc(/C=C/C(=O)Nc2ccc3c(c2)CCC3)cc1OC`, the cell number change was found to be 25.4%. Besides, the AC50 under setting [2] is 32.6 µM [rising, single point].

Consider `O=C(CSc1ccccc1)NC1=NCCS1`, for which the cell number change was determined as 2.41%. Under setting [1], the half-maximal activity concentration (AC50) is 0.0206 µM [falling, full curve, poor fit].

For the compound `CCCc1nn(-c2ccccc2)c2c1C(c1cccs1)C(C#N)=C(N)O2` (configuration not stated), the cell number change was -8.92%. Besides, under setting [1], the AC50 is 0.461 µM [rising, full curve]. Besides, under setting [2], the AC50 was 0.58 µM [rising, partial curve].

In the case of `COc1ccc(C(=O)NCC(=O)OCC(=O)NC(=O)c2ccc(C(C)(C)C)cc2)cc1OC`, the cell number change worked out at 1.5%. Also, the AC50 under setting [2] is 0.651 µM [falling, single point].

As to `CC(=O)c1cccc(NC(=O)N2CCCC2C(=O)NCCC(C)C)c1` (configuration not stated), the cell number change is -0.0696%.

Regarding `CCOC(=O)N1CCC(n2c(SCC(=O)NCCC3=CCCCC3)nc3ccccc3c2=O)CC1`, the cell number change is -36%. In addition, the AC50 under setting [1] is 10.3 µM [falling, single point].

`CCC(C)(C)NC(=O)C(C(C)C)N(CC1CCCO1)C(=O)CNS(=O)(=O)c1ccccc1` (configuration not stated): the cell number change was 1.28%. In addition, the AC50 under setting [1] is 0.411 µM [falling, full curve].

Turning to `CCOc1ccc(CN(C)CC(=O)NCc2ccc(F)cc2)cc1`, the cell number change was 14.1%. For the same compound, under setting [2], the AC50 was 2.31 µM [rising, full curve, poor fit].

On to `Cc1ccc2nc(SCC(=O)Nc3ccc4c(c3)OCO4)nc(=O)n2c1`, for which the cell number change came to 35%. For the same compound, the AC50 under setting [1] is 1.46 µM [rising, full curve].

Take `Nc1nc(SCC(=O)Nc2ncc(C(F)(F)F)cc2Cl)n[nH]1`: the cell number change was -41.3%.

As to `Cc1nnc2ccc(N3CCN(c4ccccn4)CC3)nn12`, the cell number change was -32.6%. The AC50 under setting [1] was 32.6 µM [falling, single point]. In addition, the concentration at half-maximal activity (AC50) under setting [2] is 29.1 µM [falling, partial curve, poor fit].

For `C/C(=C\C(=O)c1ccc(C)cc1)Nc1cccc(O)c1`, the cell number change is -36.5%. Moreover, the concentration at half-maximal activity (AC50) under setting [1] is 32.6 µM [falling, single point]. In addition, the AC50 under setting [2] was 13 µM [falling, partial curve, poor fit].

`COc1ccc(CCNS(=O)(=O)CCNC(=O)c2ccc3c(c2)OCO3)cc1OC`: the cell number change was -17.8%. Besides, the AC50 under setting [1] was 0.146 µM [falling, full curve, poor fit]. Moreover, under setting [2], the AC50 was 0.146 µM [falling, full curve, poor fit].

As for `COc1ccc(-c2nnc(COc3ccc4ccccc4c3)o2)cc1OC`, the cell number change amounted to 34.9%. Besides, under setting [1], the AC50 is 2.31 µM [rising, partial curve]. The AC50 under setting [2] is 6.51 µM [falling, partial curve, poor fit].

On to `O=C(COC(=O)COc1ccc(Cl)cc1)Nc1ccc(N2CCOCC2)cc1`, for which the AC50 under setting [1] is 6.51 µM [rising, single point].

As for `CCCC[C@]12Cc3cc(C#N)ccc3C(O1)c1c(cc(C)n(-c3ccccc3)c1=O)O2`, the cell number change stood at 0.581%. Moreover, under setting [2], the AC50 was 1.19 µM [rising, partial curve].

As for `Cc1oc2cc(O)ccc2c(=O)c1-c1ccccc1`, the cell number change was 24.5%.

With `COc1ccc(C(=O)N/N=C/c2cc(Br)ccc2O)cc1OC`, the cell number change was determined as 12.4%.

For `CC(=O)Nc1ccc(C(=O)OCC(=O)c2ccc(S(=O)(=O)N3CCCCC3)cc2)cc1`, the cell number change is -22.6%.

With `CN(C)S(=O)(=O)c1cccc(NC(=O)COC(=O)c2cn(-c3ccccc3)nc2-c2ccccc2)c1`, the cell number change was -28.6%. The AC50 under setting [1] was 0.82 µM [falling, full curve, poor fit]. Also, the AC50 under setting [2] is 32.6 µM [falling, partial curve, poor fit].

For `Clc1ccc(Cn2nnc(-c3ccc(CN4CCOCC4)cc3)n2)cc1`, the cell number change is -10.6%.

Turning to `Cc1ccc(CN(C)C(=O)CN2C(=O)NC(c3ccccc3)(c3ccccc3)C2=O)c(C)c1`, the cell number change was 15.8%.

As for `COc1ccc(CCNS(=O)(=O)c2cc3c4c(c2)CCN4C(=O)CC3)cc1`, the AC50 under setting [1] is 0.231 µM [rising, full curve, poor fit].

For the compound `CCn1c(COc2ccccc2OC)nc2ccccc21`, the cell number change was found to be 0.992%. Besides, the AC50 under setting [2] is 1.03 µM [rising, full curve, poor fit].

`c1csc(-c2nnc(NC3CCCCC3)c3ccccc23)c1`: the cell number change was -20.1%. For the same compound, under setting [2], the AC50 was 29.1 µM [falling, single point].

For the compound `COc1cccc(OCc2ccc(C(=O)NCC3CCCO3)cc2)c1` (configuration not stated), the cell number change worked out at 12.5%. Further, the AC50 under setting [2] is 14.6 µM [rising, single point].

Turning to `CCOC(=O)c1ccccc1NC(=O)COC(=O)C1=COCCO1`, the AC50 under setting [1] was 1.84 µM [rising, partial curve, poor fit].

As for `Cc1cccc(C(=O)N(NC(=O)Oc2ccccc2)C(C)(C)C)c1`, the cell number change is -27.9%. For the same compound, the AC50 under setting [2] is 29.1 µM [falling, single point].

As to `NCCCC(=O)O`, the cell number change was -3.46%. Besides, the AC50 under setting [2] was 0.103 µM [falling, full curve, poor fit].

For the compound `c1cncc(-c2nc(NCc3ccco3)c3ccccc3n2)c1`, under setting [2], the AC50 is 0.82 µM [rising, single point].

For `Cc1ncc(CC(=O)n2cc(C(=O)c3cc(Cl)ccc3O)cn2)s1`, the cell number change was 32%. The AC50 under setting [1] was 29.1 µM [rising, single point]. Also, under setting [2], the AC50 is 4.11 µM [rising, single point].

In the case of `N#Cc1c(-n2cccc2)cccc1-n1cccc1`, the cell number change was -15.6%. The AC50 under setting [2] is 3.26 µM [falling, single point].

On to `O=C(Nc1ccc(Cl)cc1F)c1cc(S(=O)(=O)N2CCCCC2)ccc1F`, for which the cell number change was found to be 38.1%. The AC50 under setting [1] was 13 µM [rising, single point].

Consider `COc1ccccc1C(=O)OCCNC(=O)Cn1cnc2c1c(=O)n(C)c(=O)n2C`, for which the cell number change turned out to be 96.7%. For the same compound, under setting [1], the AC50 was 0.58 µM [rising, full curve]. Further, under setting [2], the AC50 is 1.64 µM [rising, full curve].

Take `Cc1cc2cc(C(c3nnnn3Cc3ccco3)N3CCCCC3)c(=O)[nH]c2cc1C` (configuration not stated): the cell number change came out at 7.32%. The AC50 under setting [1] is 0.731 µM [rising, single point].

For `CCOC(=O)CC1C(=O)NCCN1S(=O)(=O)c1ccc(F)cc1` (configuration not stated), the cell number change stood at 125%. Further, the AC50 under setting [1] is 32.6 µM [rising, partial curve, poor fit]. Moreover, under setting [2], the AC50 is 0.00731 µM [falling, full curve, poor fit].

Regarding `CCOC(=O)c1cnn(CCOC(=O)c2ccc(OC)cc2)c1NC(=O)c1ccc(OC)cc1`, the cell number change came out at 1.71%. The half-maximal activity concentration (AC50) under setting [2] is 2.31 µM [rising, partial curve].

With `C/C(CC(=O)NCc1ccc(Cl)cc1)=N\NC(=O)COc1ccc(C)cc1Br`, the cell number change was found to be 19.2%. Further, the AC50 under setting [1] is 2.06 µM [rising, single point]. For the same compound, under setting [2], the AC50 was 6.51 µM [falling, single point].

What is called AC50 is the midpoint of the concentration-response curve, whichever way the signal moves.
